In PubChem BioAssay AID540256 (National Center for Advancing Translational Sciences (NCATS), 2011):
Among all 300,000 compounds or so, about 3,700 (1.2%) were called active. This list was built around the results that the source calls inconclusive (neither active nor inactive); the mix of calls is not that of the screen. Calls follow the shape of the full dose curve; tested in HEK293 cells. A potency beside an inconclusive call is a rough fit, not a confirmed value.
% is scaled to controls: 0 for no effect and ±100 for the full control effect; potency is read from the fitted curve at half-maximal effect.

Test: qHTS for Inhibitors of binding or entry into cells for Lassa Virus; also: nearly all actives have a fitted effect of over 50% in size
Conditions: Lassa virus pseudotype entry inhibition, cell reporter; activity change, negative = inhibition: at 37.9 µM (top of the series) unless noted
With `COc1cc(NC(=O)c2cc(C)on2)cc(OC)c1OC` the Potency was inconclusive: 29.1 µM [activator, single point].
In the case of `CC(=O)/C=C1/SC(CC(=O)O)C(=O)N1c1ccccc1` (stereo not given), the Potency is reported as inconclusive: 6.51 µM [inhibitor, single point].
In the case of `CCCOC(=O)c1ccc(NC(=O)c2ccccc2OC)cc1`, the “activity change, negative = inhibition” value is reported as inactive: -32.1%.
With `Cc1cccc(C(=O)N2CCCC(N3CCN(c4cccc(Cl)c4)CC3)C2)n1` (stereo not given) the “activity change, negative = inhibition” value was inactive: 1.48%.
For `Cc1ccc(O)c(NC(=O)c2ccccc2-c2ccccc2C(=O)O)c1`, the “activity change, negative = inhibition” value was inactive: 25%.
In the case of `CCC(=O)c1ccc(N2CCN(C(=O)c3ccc(F)cc3)CC2)c(F)c1`, the “activity change, negative = inhibition” value is reported as inactive: -7.7% [at 46.1 µM].
In the case of `N#C/C(=C/c1cn(-c2ccccc2)nc1-c1cccc(OCc2ccc(F)cc2)c1)C(=O)NCCCn1ccnc1`, the Potency is reported as inconclusive: 20.6 µM [inhibitor, single point].
With `CCc1cccc(C)c1NC(=S)NCC1CCN(c2ccc(OC)cc2)C1` (stereo not given) the “activity change, negative = inhibition” value was inactive: 18.3%.
In the case of `O=C(Nc1ccc(F)cc1)C(c1ccccc1)N1CCN(S(=O)(=O)c2ccccc2)CC1` (stereo not given), the Potency is reported as inconclusive: 35.5 µM [inhibitor, single point].
For `N/C(=N\OC(=O)COc1cc(Cl)c(Cl)cc1Cl)c1ccncc1`, the Potency was inconclusive: 5.01 µM [inhibitor, full curve, poor fit].
For `CC1Cc2ccccc2N1Cc1cc(=O)c(OCC(=O)NCCc2ccccc2)co1` (stereo not given), the Potency was inconclusive: 31.6 µM [inhibitor, single point].
For `CC(=O)N(C)c1cc([N+](=O)[O-])ccc1OCc1ccccc1`, the “activity change, negative = inhibition” value was inactive: 12.1%.
In the case of `COc1cccc(C2=CC(c3cccs3)n3nnnc3N2)c1` (stereo not given), the Potency is reported as inconclusive: 32.6 µM [inhibitor, single point].
With `CCC(CC)C(=O)Nc1nc2c(s1)CC(C)CC2` (stereo not given) the “activity change, negative = inhibition” value was inactive: 13.4% [at 46.1 µM].
With `COc1ccc(-n2nnnc2C2CCN(S(=O)(=O)c3ccc(C(C)(C)C)cc3)CC2)cc1` the “activity change, negative = inhibition” value was inactive: -3.51% [at 46.1 µM].
For `CNC(=O)C[C@H]1C(=O)N(c2ccc(OC)cc2)C[C@@H]1CSC`, the Potency was inconclusive: 11.2 µM [inhibitor, single point].
For `COc1ccc(CCNC(=O)C2CCCN(S(=O)(=O)c3ccc(F)cc3)C2)cc1` (stereo not given), the “activity change, negative = inhibition” value was inactive: -12%.
With `COc1ccc(CCNC(=O)C(=O)NCC2CCCN2S(=O)(=O)c2cc(C)ccc2C)cc1` (stereo not given) the Potency was active: 11.2 µM.
In the case of `COc1ccc(C(=O)Nc2nnc(SCC(=O)NCc3ccco3)s2)cc1OC`, the Potency is reported as inconclusive: 35.5 µM [activator, single point].
With `O=C(NNS(=O)(=O)c1ccccc1)C(O)(c1ccccc1)c1ccccc1` the “activity change, negative = inhibition” value was inactive: -20.1%.
For `CCOc1ccc(N2C(=O)/C(=C/c3cc(OC)c(OC)c(OC)c3)N(CC(=O)OC)C2=S)cc1`, the Potency was inconclusive: 22.4 µM [inhibitor, partial curve, poor fit].
For `O=C(Nc1ccccc1N1CCN(C(=O)c2ccc(Cl)cc2)CC1)c1cccc(F)c1`, the Potency was inconclusive: 15.8 µM [inhibitor, single point].
In the case of `Cc1ccc(N2C(=O)CC(SCC(=O)Nc3ccc(S(N)(=O)=O)cc3)C2=O)cc1` (stereo not given), the “activity change, negative = inhibition” value is reported as inactive: -13.8%.
For `COc1ccccc1N(C)S(=O)(=O)c1ccc(C(=O)Nc2ccc(C)cc2C)cc1`, the Potency was inconclusive: 1.26 µM [activator, single point].
With `CCn1cc(/C=N/O)c(C)n1` the “activity change, negative = inhibition” value was inactive: 23.4%.
With `COc1cccc(CNC(=O)c2cc(C)nc3c2c(C)nn3-c2cccc(F)c2)c1` the “activity change, negative = inhibition” value was inactive: 0.536% [at 46.1 µM].
For `COc1ccc(S(=O)(=O)Nc2ccc3c(c2)CCCN3S(=O)(=O)c2ccc(C)cc2)cc1F`, the Potency was inconclusive: 3.98 µM [inhibitor, partial curve, poor fit].
For `CN1C(=O)CC(N2CCN(CCN=CC3=C(O)CC(C)(C)CC3=O)CC2)C1=O` (stereo not given), the Potency was inconclusive: 31.6 µM [activator, single point].
For `CCOc1ccc(S(=O)(=O)Nc2cc(OC)ccc2OC)cc1`, the Potency was inconclusive: 0.282 µM [inhibitor, partial curve, poor fit].
With `Cn1c(NC(=O)c2cccc(Cn3cc(Cl)cn3)c2)nc2ccccc21` the Potency was inconclusive: 0.73 µM [activator, full curve, poor fit].
In the case of `Cc1cc(N)n2ncc(-c3cccc(Br)c3)c2n1`, the Potency is reported as inconclusive: 2.91 µM [activator, full curve, poor fit].
With `COc1ccccc1N1CCN(CCCCNS(=O)(=O)c2cccc3c(N(C)C)cccc23)CC1` the Potency was active: 14.6 µM.
In the case of `CC(C)(C)C(=O)COC(=O)c1ccc(N)c([N+](=O)[O-])c1`, the “activity change, negative = inhibition” value is reported as inactive: 11.4% [at 46.1 µM].
In the case of `COc1ccc(N2CCN(C(=O)c3cccc(NC(=O)c4nsc5ccccc45)c3)CC2)cc1`, the “activity change, negative = inhibition” value is reported as inactive: -27.5% [at 46.1 µM].
For `O=C(COc1ccc(F)cc1Br)NCc1ccccn1`, the “activity change, negative = inhibition” value was inactive: 10.9%.
With `CCOC(=O)c1ccc(NC(=O)Nc2cc3c(cc2N2CCCC2)n(C)c(=O)n3C)cc1` the Potency was inconclusive: 2.24 µM [inhibitor, full curve, poor fit].
For `CCc1ccc(OCC(=O)N/N=C/c2cc([N+](=O)[O-])ccc2N2CCOCC2)cc1`, the Potency was inconclusive: 16.4 µM [inhibitor, partial curve].
With `COC(=O)c1[nH]c2ccc(Cl)cc2c1NC(=O)Oc1ccccc1` the Potency was inconclusive: 31.6 µM [activator, single point].
In the case of `O=C(Nc1ccc2nc(SCC(=O)N3CCCc4ccccc43)sc2c1)c1ccccc1`, the Potency is reported as inconclusive: 20 µM [inhibitor, single point].
For `Cc1nc(/C=C/c2ccccc2)[nH]c(=O)c1-c1ccccc1`, the Potency was inconclusive: 1 µM [inhibitor, full curve, poor fit].
In the case of `Cc1ccc(S(=O)(=O)/N=C(\N)Nc2nc(C)c3ccc(C)cc3n2)cc1`, the Potency is reported as inconclusive: 32.6 µM [inhibitor, single point].
With `CCN1C=CC(=C2C(=O)c3ccccc3C2=O)C=C1` the Potency was active: 0.651 µM.
In the case of `COc1cc(OC)cc(C(=O)Nc2nc(CC(=O)NCc3ccc(F)cc3)cs2)c1`, the Potency is reported as inconclusive: 35.5 µM [inhibitor, single point].
With `Cc1ccc(C(=O)NCc2ccc(F)cc2)cc1NC(=O)c1nsc2ccccc12` the Potency was inconclusive: 20 µM [inhibitor, single point].
For `NC(=S)N/N=C/c1ccc(-c2cc(Cl)c(Cl)cc2Cl)o1`, the “activity change, negative = inhibition” value was inactive: -14.5% [at 46.1 µM].
